The results in this text go back to publication PMC12594171, “DKK3-LRP1 complex and a chemical inhibitor regulate Aβ clearance in models of Alzheimer’s disease” (Science Advances, 2025).

Amino acid sequences for entries named in this document (tags omitted). Residues count along the entry.
UniProt O75581, residues 20-1613: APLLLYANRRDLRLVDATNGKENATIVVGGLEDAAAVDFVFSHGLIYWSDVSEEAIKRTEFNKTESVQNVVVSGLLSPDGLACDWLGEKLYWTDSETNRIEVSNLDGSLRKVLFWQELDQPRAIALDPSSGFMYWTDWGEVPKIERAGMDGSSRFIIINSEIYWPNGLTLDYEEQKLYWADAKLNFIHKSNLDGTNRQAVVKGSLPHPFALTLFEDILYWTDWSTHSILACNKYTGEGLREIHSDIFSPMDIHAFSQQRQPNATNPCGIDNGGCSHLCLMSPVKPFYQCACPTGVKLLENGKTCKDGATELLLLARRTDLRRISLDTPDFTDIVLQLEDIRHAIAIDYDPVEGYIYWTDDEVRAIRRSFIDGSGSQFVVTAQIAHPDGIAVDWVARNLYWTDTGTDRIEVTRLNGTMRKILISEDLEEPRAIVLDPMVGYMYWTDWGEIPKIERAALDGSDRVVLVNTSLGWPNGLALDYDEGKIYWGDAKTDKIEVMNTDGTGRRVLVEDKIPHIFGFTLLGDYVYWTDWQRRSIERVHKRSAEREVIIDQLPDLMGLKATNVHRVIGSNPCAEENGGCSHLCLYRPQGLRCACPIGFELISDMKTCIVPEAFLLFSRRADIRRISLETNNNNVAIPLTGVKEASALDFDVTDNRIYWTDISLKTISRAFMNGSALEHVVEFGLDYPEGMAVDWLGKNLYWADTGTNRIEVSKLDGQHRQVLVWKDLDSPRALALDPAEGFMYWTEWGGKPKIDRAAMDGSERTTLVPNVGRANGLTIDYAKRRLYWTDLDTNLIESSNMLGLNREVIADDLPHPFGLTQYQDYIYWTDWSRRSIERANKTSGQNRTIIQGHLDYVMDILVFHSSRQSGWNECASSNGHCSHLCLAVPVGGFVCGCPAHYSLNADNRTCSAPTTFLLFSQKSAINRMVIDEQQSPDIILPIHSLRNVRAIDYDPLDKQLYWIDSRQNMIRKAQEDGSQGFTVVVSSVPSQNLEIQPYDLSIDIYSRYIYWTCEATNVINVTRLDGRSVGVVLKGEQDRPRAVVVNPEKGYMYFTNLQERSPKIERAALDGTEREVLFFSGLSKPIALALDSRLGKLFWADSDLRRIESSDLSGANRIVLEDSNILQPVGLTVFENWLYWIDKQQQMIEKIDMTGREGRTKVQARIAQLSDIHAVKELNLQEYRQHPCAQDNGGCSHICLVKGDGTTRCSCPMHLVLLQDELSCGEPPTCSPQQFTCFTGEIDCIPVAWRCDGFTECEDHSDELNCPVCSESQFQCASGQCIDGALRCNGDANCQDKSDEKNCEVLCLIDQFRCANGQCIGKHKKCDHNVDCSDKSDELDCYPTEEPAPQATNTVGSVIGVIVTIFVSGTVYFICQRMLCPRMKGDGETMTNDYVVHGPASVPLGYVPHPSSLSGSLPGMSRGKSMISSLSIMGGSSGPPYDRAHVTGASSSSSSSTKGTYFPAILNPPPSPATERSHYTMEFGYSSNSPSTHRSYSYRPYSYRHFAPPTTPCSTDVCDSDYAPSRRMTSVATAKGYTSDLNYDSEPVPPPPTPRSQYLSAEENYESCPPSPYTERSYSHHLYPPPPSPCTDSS
UniProt Q07954, residues 20-4544: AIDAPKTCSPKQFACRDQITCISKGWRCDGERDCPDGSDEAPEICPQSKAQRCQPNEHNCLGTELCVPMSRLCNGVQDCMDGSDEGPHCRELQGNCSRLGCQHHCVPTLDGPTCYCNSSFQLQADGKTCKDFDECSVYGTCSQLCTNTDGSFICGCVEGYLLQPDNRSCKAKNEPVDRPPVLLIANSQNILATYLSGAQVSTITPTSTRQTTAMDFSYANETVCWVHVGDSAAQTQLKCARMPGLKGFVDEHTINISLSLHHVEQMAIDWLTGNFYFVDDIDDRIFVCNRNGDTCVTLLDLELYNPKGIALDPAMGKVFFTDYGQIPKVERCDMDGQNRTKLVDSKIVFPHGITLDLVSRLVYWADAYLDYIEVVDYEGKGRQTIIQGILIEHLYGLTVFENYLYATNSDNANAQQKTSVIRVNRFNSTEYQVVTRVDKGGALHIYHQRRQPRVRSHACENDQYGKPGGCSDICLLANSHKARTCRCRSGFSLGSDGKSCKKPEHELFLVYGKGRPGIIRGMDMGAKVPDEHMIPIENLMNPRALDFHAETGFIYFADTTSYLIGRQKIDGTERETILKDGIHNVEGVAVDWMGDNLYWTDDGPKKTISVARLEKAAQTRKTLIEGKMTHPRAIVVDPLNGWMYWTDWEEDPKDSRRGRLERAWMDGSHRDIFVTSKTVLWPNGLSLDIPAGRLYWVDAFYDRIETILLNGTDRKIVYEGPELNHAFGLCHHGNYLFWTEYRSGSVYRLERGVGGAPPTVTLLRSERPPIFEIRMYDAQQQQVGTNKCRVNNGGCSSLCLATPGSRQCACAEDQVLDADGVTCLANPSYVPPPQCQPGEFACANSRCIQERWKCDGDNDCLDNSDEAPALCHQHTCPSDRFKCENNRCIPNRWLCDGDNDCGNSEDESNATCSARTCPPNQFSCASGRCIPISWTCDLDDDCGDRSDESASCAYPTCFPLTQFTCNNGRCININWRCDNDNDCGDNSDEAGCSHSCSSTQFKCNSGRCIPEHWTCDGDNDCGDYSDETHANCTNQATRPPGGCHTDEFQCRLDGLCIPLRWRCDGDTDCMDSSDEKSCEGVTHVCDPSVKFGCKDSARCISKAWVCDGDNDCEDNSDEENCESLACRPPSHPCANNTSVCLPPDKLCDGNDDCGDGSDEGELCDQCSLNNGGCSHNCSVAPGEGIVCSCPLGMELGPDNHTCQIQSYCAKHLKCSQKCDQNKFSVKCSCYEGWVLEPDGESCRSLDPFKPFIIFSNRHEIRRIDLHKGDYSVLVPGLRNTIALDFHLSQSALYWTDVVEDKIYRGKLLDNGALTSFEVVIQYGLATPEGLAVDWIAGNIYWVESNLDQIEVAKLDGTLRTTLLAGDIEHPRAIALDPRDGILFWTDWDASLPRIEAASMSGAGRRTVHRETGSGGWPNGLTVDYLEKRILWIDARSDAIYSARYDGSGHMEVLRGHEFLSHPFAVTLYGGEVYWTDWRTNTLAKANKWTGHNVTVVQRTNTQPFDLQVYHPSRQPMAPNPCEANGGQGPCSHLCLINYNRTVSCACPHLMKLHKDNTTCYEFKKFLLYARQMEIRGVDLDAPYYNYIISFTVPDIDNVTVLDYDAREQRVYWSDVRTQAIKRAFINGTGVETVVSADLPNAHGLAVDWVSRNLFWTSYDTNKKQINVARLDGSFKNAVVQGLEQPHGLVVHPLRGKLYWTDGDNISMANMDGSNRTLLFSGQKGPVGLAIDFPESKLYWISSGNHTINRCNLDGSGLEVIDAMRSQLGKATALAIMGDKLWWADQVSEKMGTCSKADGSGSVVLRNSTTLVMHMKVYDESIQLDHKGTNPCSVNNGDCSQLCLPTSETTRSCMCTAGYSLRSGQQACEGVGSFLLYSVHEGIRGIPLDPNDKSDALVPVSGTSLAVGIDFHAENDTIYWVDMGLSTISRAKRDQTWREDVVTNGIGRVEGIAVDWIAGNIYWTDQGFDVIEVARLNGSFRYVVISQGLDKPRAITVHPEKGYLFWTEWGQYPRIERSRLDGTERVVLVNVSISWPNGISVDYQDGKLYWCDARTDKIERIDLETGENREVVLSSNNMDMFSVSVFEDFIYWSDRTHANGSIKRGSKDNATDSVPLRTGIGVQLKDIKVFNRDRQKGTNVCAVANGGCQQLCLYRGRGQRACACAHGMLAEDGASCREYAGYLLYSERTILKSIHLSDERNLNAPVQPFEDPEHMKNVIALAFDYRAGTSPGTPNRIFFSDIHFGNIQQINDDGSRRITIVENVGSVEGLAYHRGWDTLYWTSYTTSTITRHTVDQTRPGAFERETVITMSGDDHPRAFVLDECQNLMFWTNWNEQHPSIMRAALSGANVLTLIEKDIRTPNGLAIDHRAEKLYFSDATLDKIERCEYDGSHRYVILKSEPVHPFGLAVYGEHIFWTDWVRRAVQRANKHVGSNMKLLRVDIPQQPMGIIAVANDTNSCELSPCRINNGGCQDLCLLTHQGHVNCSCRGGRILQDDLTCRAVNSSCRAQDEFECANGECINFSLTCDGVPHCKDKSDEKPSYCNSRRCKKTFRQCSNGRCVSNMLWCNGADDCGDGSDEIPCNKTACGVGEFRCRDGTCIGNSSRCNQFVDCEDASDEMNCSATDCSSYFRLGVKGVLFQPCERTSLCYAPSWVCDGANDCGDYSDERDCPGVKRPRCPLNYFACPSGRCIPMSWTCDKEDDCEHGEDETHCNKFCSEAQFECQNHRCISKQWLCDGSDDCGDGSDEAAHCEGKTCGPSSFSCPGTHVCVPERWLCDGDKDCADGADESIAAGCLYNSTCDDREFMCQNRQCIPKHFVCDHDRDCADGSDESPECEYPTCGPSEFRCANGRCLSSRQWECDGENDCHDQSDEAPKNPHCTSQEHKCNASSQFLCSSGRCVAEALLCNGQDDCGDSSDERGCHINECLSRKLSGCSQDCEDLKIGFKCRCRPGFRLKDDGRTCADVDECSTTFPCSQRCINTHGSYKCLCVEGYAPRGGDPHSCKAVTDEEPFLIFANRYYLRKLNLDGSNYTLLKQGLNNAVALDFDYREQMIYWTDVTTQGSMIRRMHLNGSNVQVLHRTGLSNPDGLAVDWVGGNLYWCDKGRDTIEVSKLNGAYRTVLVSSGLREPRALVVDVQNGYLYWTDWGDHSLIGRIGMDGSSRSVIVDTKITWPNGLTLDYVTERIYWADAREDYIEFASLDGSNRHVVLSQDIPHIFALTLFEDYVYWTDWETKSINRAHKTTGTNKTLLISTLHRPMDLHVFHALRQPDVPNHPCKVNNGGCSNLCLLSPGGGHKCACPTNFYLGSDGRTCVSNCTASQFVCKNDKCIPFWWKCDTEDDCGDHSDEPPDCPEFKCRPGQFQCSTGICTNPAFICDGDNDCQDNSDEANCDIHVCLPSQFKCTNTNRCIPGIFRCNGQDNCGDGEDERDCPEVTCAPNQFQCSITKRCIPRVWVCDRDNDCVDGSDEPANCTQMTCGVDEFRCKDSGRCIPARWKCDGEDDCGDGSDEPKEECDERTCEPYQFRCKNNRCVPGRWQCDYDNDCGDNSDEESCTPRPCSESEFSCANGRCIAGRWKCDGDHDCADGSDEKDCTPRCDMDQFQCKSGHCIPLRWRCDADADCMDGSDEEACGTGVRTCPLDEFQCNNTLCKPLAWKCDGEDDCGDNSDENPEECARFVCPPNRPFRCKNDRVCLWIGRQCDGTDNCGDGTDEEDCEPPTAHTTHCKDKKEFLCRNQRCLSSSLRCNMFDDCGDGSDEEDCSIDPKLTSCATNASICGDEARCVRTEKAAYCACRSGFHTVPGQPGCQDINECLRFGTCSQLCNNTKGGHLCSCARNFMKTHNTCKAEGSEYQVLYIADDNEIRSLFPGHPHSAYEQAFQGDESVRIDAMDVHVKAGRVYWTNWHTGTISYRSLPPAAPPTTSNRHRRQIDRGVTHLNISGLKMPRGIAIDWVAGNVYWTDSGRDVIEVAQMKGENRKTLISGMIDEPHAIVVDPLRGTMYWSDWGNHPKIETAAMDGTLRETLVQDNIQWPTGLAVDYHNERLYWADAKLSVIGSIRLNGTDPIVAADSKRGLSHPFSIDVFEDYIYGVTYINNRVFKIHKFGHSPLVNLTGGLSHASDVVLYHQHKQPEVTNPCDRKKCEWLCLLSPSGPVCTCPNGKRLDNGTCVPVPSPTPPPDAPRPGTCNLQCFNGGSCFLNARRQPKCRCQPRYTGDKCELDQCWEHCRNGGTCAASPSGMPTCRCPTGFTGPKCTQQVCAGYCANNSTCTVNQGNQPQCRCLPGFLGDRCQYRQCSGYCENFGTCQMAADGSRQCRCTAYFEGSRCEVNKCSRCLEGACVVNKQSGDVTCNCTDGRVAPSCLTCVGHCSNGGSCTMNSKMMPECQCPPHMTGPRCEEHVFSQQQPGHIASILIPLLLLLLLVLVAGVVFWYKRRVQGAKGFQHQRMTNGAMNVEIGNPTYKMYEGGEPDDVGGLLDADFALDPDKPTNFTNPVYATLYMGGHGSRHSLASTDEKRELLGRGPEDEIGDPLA
UniProt Q9QUN9, residues 23-349: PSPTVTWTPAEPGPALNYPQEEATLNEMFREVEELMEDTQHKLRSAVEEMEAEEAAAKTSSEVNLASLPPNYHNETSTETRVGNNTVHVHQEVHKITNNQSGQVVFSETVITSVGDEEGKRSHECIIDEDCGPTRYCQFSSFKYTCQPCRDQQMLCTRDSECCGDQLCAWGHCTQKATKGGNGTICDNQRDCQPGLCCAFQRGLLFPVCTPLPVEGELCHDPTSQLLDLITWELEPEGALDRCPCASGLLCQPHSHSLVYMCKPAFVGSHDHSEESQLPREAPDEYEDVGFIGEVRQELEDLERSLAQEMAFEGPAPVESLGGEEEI

The target in assay [1] is LRP6, endogenous in human brain (human (endogenous in AD brain)) (UniProt O75581). The experiment in a line: co-IP; human AD brain lysates, IP with antibodies to DKK1, DKK3 and LRP1, IgG as negative control, immunoblot.
Assay [2] deals with soluble LRP1 (sLRP1), endogenous in mouse plasma (mouse (endogenous in 5×FAD plasma)) (UniProt Q91ZX7). In words: co-IP + ELISA; plasma of 5×FAD mice treated with vehicle or SJ-300; anti-LRP1 antibody and Protein G agarose overnight at 4°C; bound DKK3 by ELISA.
The target in assay [3] is LRP1, endogenous in differentiated AD-NSC cultures (human (endogenous in iPSC-derived AD-NSC cultures)) (UniProt Q07954). In words: co-IP; differentiated AD-NSC cultures incubated with 1 μM Aβ42 and various concentrations of purified DKK1-Flag or DKK3-Flag for 30 min; total extract precipitated with anti-LRP1 antibody; immunoblot; only the binder purified. (In general: In western blotting, separated proteins are transferred to a membrane and probed.)

No constants are given. Whether binding was seen depends on the method and setting. In cells and extracts the contact can be indirect. Some entries that bind do so weakly or less than the wild type.

In the case of “DKK3, endogenous in human brain (from UniProt Q9UBP4 22-350) (ligand)”, the binding result in assay [1] is “no binding”.

For “DKK3, endogenous in mouse plasma (from UniProt Q9QUN9 23-349) (ligand)”, the binding result in assay [2] was “binds”.

As for “DKK3-Flag (from UniProt Q9UBP4 22-350) (ligand)”, the binding result in assay [3] was “binds”.
